From publication PMC12719775, “Alexidine is a TAZ-specific small-molecule inhibitor that suppresses breast cancer invasion and metastasis” (iScience, 2025)

By UniProt entry, the sequences of proteins in these tests, tags left out. Where a name states a change or a piece, a line headed by the entry shows the natural chain unless it says otherwise. Residues count along the entry.
UniProt Q9GZV5, residues 13-119: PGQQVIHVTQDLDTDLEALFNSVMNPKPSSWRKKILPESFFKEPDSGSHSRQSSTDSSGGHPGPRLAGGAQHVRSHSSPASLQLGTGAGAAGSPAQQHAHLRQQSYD
UniProt P28347: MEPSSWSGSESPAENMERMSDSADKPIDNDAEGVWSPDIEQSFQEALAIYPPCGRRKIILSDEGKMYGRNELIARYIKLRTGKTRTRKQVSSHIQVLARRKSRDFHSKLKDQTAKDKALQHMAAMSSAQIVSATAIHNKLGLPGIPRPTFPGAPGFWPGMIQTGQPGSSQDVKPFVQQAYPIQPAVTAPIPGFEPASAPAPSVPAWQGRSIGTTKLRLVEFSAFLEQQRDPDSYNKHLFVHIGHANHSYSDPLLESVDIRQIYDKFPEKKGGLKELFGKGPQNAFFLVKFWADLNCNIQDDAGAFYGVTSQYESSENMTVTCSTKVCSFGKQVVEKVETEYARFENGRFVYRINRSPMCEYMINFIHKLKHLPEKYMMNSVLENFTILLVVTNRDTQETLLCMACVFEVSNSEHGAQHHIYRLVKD

Key:
[1] = target: FLAG-SmBiT-TAZ (interacting domain of TAZ, aa 13-119) (UniProt Q9GZV5); test: split reporter; NanoBiT in HEK293T lysates (passive lysis buffer) co-expressing FLAG-SmBiT-TAZ and His-LgBiT-TEAD1; increasing amounts of lysate; Nano-Glo Live substrate
[2] = target: FLAG-SmBiT-TAZ (interacting domain of TAZ, aa 13-119) (UniProt Q9GZV5); test: co-IP; HEK293T cells co-transfected with both biosensor plasmids, 1% NP-40 lysates; FLAG-SmBiT-TAZ precipitated with anti-FLAG antibody, blot with anti-His; also after treating the cells with DMSO, alexidine, caspofungin or VT104 (10 uM, 48 h)
[3] = target: FLAG-SmBiT-TAZ (interacting domain of TAZ, aa 13-119) (UniProt Q9GZV5); test: AlphaScreen or HTRF; TR-FRET in HEK293T lysates co-expressing the biosensor; Tb-conjugated anti-FLAG and D2-conjugated anti-His antibodies; increasing amounts of lysate; also with alexidine in a dose-response

Measured: binding

His-LgBiT-TEAD1 (interacting domain of TEAD1, aa 194-411) (from UniProt P28347) (domain or fragment)
binds: all assays above

No constants are given. Whether binding was seen depends on the method and setting. Binding can be weak; no strength is given. For part of these data: Binding seen in cells or lysates may run through a third protein.
